{"source": "PubChem BioAssay AID686938 – Drosophila RNAi Screening Center, 2013", "aim": "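Knock-downs reducing store-operated calcium influx in Drosophila cells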 (primary screen)", "system": "Drosophila S2R+ cells", "knock-down reagent": "long dsRNA against Drosophila genes, about 0.25 µg dsRNA per well, roughly 10,000 cells", "time to read-out": "5 days of knock-down before the calcium assay", "treatment": "thapsigargin (SERCA pump blocker) to empty calcium stores; entry signal taken 4 min after adding it", "detection": "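Per-well fluo-4 fluorescence in two replicates, unnormalised, measured in resting cells and 4 min after store depletion by the SERCA blocker thapsigargin; ratio of the two present in few wells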", "reading the numbers": "calcium entry signal: higher = stronger calcium signal after store depletion; resting calcium signal: higher = higher resting calcium signal", "active means": "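Called when the plate z-score of the entry-to-rest ratio, mean of duplicates, falls below −3; wells with low overall dye signal (Fmax z below −2) or more than five off-targets excluded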", "calls": "active = strongly reduced calcium entry; inactive = no strong reduction", "note": "In all, the deposit lists about 23,000 reagents; shown is an unselected part of those that have a named target and a result. Over the whole deposit, 75 (0.33%) are marked active. 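Raw plate signals without normalisation; calls rest on plate z-scores that were not deposited; ratio present for only 364 wells.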 Reagents against one gene are numbered here. Not given: the dose of the treatment."}
{"gene": "ash2 (absent, small, or homeotic discs 2)", "dsRNA no.": 1, "calcium entry signal, replicate 1 (fluorescence units)": 3.70e7, "calcium entry signal, replicate 2 (fluorescence units)": 3.21e7, "resting calcium signal, replicate 1 (fluorescence units)": 1.86e7, "resting calcium signal, replicate 2 (fluorescence units)": 1.47e7, "activity call": "inactive"}
{"gene": "CG9406", "dsRNA no.": 1, "calcium entry signal, replicate 1 (fluorescence units)": 4.78e7, "calcium entry signal, replicate 2 (fluorescence units)": 4.75e7, "resting calcium signal, replicate 1 (fluorescence units)": 2.16e7, "resting calcium signal, replicate 2 (fluorescence units)": 2.27e7, "activity call": "inactive"}
{"gene": "Sec6 (Secretory 6)", "dsRNA no.": 1, "calcium entry signal, replicate 1 (fluorescence units)": 4.21e7, "calcium entry signal, replicate 2 (fluorescence units)": 4.21e7, "resting calcium signal, replicate 1 (fluorescence units)": 2.08e7, "resting calcium signal, replicate 2 (fluorescence units)": 1.90e7, "activity call": "inactive"}
{"gene": "Grl62a (Gustatory receptor-like 62a)", "dsRNA no.": 1, "calcium entry signal, replicate 1 (fluorescence units)": 3.48e7, "calcium entry signal, replicate 2 (fluorescence units)": 4.06e7, "resting calcium signal, replicate 1 (fluorescence units)": 1.68e7, "resting calcium signal, replicate 2 (fluorescence units)": 1.87e7, "activity call": "inactive"}
{"gene": "CG34124", "dsRNA no.": 1, "calcium entry signal, replicate 1 (fluorescence units)": 3.81e7, "calcium entry signal, replicate 2 (fluorescence units)": 4.27e7, "resting calcium signal, replicate 1 (fluorescence units)": 1.96e7, "resting calcium signal, replicate 2 (fluorescence units)": 2.01e7, "activity call": "inactive"}
{"gene": "CG30284", "dsRNA no.": 1, "calcium entry signal, replicate 1 (fluorescence units)": 3.52e7, "calcium entry signal, replicate 2 (fluorescence units)": 5.72e7, "resting calcium signal, replicate 1 (fluorescence units)": 1.64e7, "resting calcium signal, replicate 2 (fluorescence units)": 2.59e7, "activity call": "inactive"}
{"gene": "CG12914", "dsRNA no.": 1, "calcium entry signal, replicate 1 (fluorescence units)": 3.19e7, "calcium entry signal, replicate 2 (fluorescence units)": 3.68e7, "resting calcium signal, replicate 1 (fluorescence units)": 1.48e7, "resting calcium signal, replicate 2 (fluorescence units)": 1.72e7, "activity call": "inactive"}
{"gene": "wls (wntless)", "dsRNA no.": 1, "calcium entry signal, replicate 1 (fluorescence units)": 3.28e7, "calcium entry signal, replicate 2 (fluorescence units)": 3.22e7, "resting calcium signal, replicate 1 (fluorescence units)": 1.97e7, "resting calcium signal, replicate 2 (fluorescence units)": 1.28e7, "activity call": "inactive"}
{"gene": "Cpsf6 (Cleavage and polyadenylation specific factor 6)", "dsRNA no.": 1, "calcium entry signal, replicate 1 (fluorescence units)": 2.80e7, "calcium entry signal, replicate 2 (fluorescence units)": 1.78e7, "resting calcium signal, replicate 1 (fluorescence units)": 2.14e7, "resting calcium signal, replicate 2 (fluorescence units)": 9.46e6, "activity call": "inactive"}
{"gene": "CG15546", "dsRNA no.": 1, "calcium entry signal, replicate 1 (fluorescence units)": 4.02e7, "calcium entry signal, replicate 2 (fluorescence units)": 6.09e7, "resting calcium signal, replicate 1 (fluorescence units)": 1.98e7, "resting calcium signal, replicate 2 (fluorescence units)": 2.49e7, "activity call": "inactive"}
{"gene": "CG15546", "dsRNA no.": 2, "calcium entry signal, replicate 1 (fluorescence units)": 2.88e7, "calcium entry signal, replicate 2 (fluorescence units)": 4.47e7, "resting calcium signal, replicate 1 (fluorescence units)": 1.33e7, "resting calcium signal, replicate 2 (fluorescence units)": 2.02e7, "activity call": "inactive"}
{"gene": "CG18538", "dsRNA no.": 1, "calcium entry signal, replicate 1 (fluorescence units)": 4.90e7, "calcium entry signal, replicate 2 (fluorescence units)": 7.17e7, "resting calcium signal, replicate 1 (fluorescence units)": 2.19e7, "resting calcium signal, replicate 2 (fluorescence units)": 3.11e7, "activity call": "inactive"}
{"gene": "Cc2d2a (Coiled-coil and C2 domain containing 2A)", "dsRNA no.": 1, "calcium entry signal, replicate 1 (fluorescence units)": 5.05e7, "calcium entry signal, replicate 2 (fluorescence units)": 5.47e7, "resting calcium signal, replicate 1 (fluorescence units)": 2.47e7, "resting calcium signal, replicate 2 (fluorescence units)": 2.72e7, "activity call": "inactive"}
{"gene": "Cc2d2a (Coiled-coil and C2 domain containing 2A)", "dsRNA no.": 2, "calcium entry signal, replicate 1 (fluorescence units)": 5.16e7, "calcium entry signal, replicate 2 (fluorescence units)": 6.36e7, "resting calcium signal, replicate 1 (fluorescence units)": 2.17e7, "resting calcium signal, replicate 2 (fluorescence units)": 2.96e7, "activity call": "inactive"}

A stretch of the results above, as a working copy:
{"gene": "Grl62a (Gustatory receptor-like 62a)", "dsRNA no.": 1, "calcium entry signal, replicate 1 (fluorescence units)": 3.48e7, "calcium entry signal, replicate 2 (fluorescence units)": 4.06e7, "resting calcium signal, replicate 1 (fluorescence units)": 1.68e7, "resting calcium signal, replicate 2 (fluorescence units)": 1.87e7, "activity call": "inactive"}
{"gene": "CG34124", "dsRNA no.": 1, "calcium entry signal, replicate 1 (fluorescence units)": 3.81e7, "calcium entry signal, replicate 2 (fluorescence units)": 4.27e7, "resting calcium signal, replicate 1 (fluorescence units)": 1.96e7, "resting calcium signal, replicate 2 (fluorescence units)": 2.01e7, "activity call": "inactive"}
